# US20180222982A1
# The chains behind the UniProt entries cited, without tags or fusion partners. Residues count along the entry.
# UniProt Q15116, residues 25-288: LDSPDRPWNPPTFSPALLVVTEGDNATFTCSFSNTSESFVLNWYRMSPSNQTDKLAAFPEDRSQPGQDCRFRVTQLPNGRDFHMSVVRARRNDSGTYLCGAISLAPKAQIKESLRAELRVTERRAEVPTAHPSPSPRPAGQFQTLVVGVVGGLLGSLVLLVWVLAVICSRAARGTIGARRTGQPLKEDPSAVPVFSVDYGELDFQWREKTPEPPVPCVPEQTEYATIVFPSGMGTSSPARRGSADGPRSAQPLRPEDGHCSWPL
# Results are given in words; binding and its absence hold for the method and conditions named. Some results given as binding are weak or reduced against the parent protein; the word gives no strength.
# Key:
# [1] = target: human PD-1 expressed on cells (human) (UniProt Q15116); test: flow cytometry competition against PD-L1-huIgG1 Fc and PD-L2-huIgG1 Fc on PD-1-expressing 300.19 cells
# [2] = target: human PD-1 expressed on cells (human) (UniProt Q15116); test: FACS competition with fluorescently labelled murine mAb BAP049 on PD-1 expressing Jurkat cells, first run
# [3] = target: human PD-1 expressed on cells (human) (UniProt Q15116); test: FACS competition with fluorescently labelled murine mAb BAP049 on PD-1 expressing Jurkat cells, second run
# [4] = target: human PD-1 expressed on cells (human) (UniProt Q15116); test: FACS blocking assay: constant PD-L2-huIgG1 Fc (PD-L2-Ig), serial dilutions of the mAb, PD-1-expressing 300.19 cells, bound ligand detected with PE anti-human IgG F(ab')2
# [5] = target: human PD-1 expressed on cells (human) (UniProt Q15116); test: FACS competition: constant Alexa 488-labelled murine mAb BAP049, serial dilutions of the test mAb, PD-1-expressing 300.19 cells, Experiment 2; x axis is the ratio conc. test mAb / conc. labelled murine mAb
# [6] = target: human PD-1 expressed on cells (human) (UniProt Q15116); test: FACS blocking assay: constant PD-L1-huIgG1 Fc (PD-L1-Ig), serial dilutions of the mAb, PD-1-expressing 300.19 cells, bound ligand detected with PE anti-human IgG F(ab')2; the legend paragraph 184 names 'PD-L1-Ig and PD-L2-Ig' for FIG. 8A
# [7] = target: human PD-1 expressed on cells (human) (UniProt Q15116); test: competition with labeled murine BAP049 on PD-1 expressing Jurkat cells
# [8] = target: human PD-1 expressed on cells (human) (UniProt Q15116); test: FACS competition: constant Alexa 488-labelled murine mAb BAP049, serial dilutions of the test mAb, PD-1-expressing 300.19 cells, Experiment 1; x axis is the ratio conc. test mAb / conc. labelled murine mAb
binding [1],binding [2],binding [3],binding [4],binding [5],binding [6],binding [7],binding [8],Binder
binds,binds,binds,binds,binds,binds,–,–,"murine anti-PD-1 monoclonal antibody BAP049 (antibody, V domains shown) VH: QVQLQQSGSELVRPGASVKLSCKASGYTFTTYWMHWVRQRPGQGLEWIGNIYPGTGGSNFDEKFKNRTSLTVDTSSTTAYMHLASLTSEDSAVYYCTRWTTGTGAYWGQGTLVTVSA VL: DIVMTQSPSSLTVTAGEKVTMSCKSSQSLLDSGNQKNFLTWYQQKPGQPPKLLIFWASTRESGVPDRFTGSGSVTDFTLTISSVQAEDLAVYYCQNDYSYPCTFGGGTKLEIK"
binds,binds,binds,binds,binds,binds,binds,binds,"chimeric anti-PD-1 antibody BAP049-chi (Tyr) (antibody, human IgG4 S228P, kappa, V domains shown) VH: QVQLQQSGSELVRPGASVKLSCKASGYTFTTYWMHWVRQRPGQGLEWIGNIYPGTGGSNFDEKFKNRTSLTVDTSSTTAYMHLASLTSEDSAVYYCTRWTTGTGAYWGQGTTVTVSS VL: DIVMTQSPSSLTVTAGEKVTMSCKSSQSLLDSGNQKNFLTWYQQKPGQPPKLLIFWASTRESGVPDRFTGSGSVTDFTLTISSVQAEDLAVYYCQNDYSYPYTFGQGTKVEIKR"
–,binds,binds,–,–,–,binds,–,"chimeric anti-PD-1 antibody BAP049-chi (Cys) (antibody, human IgG4 S228P, kappa, V domains shown) VH: QVQLQQSGSELVRPGASVKLSCKASGYTFTTYWMHWVRQRPGQGLEWIGNIYPGTGGSNFDEKFKNRTSLTVDTSSTTAYMHLASLTSEDSAVYYCTRWTTGTGAYWGQGTTVTVSS VL: DIVMTQSPSSLTVTAGEKVTMSCKSSQSLLDSGNQKNFLTWYQQKPGQPPKLLIFWASTRESGVPDRFTGSGSVTDFTLTISSVQAEDLAVYYCQNDYSYPCTFGQGTKVEIKR"
–,binds,binds,–,–,–,binds,–,"chimeric anti-PD-1 antibody BAP049-chi (Ser) (antibody, human IgG4 S228P, kappa, V domains shown) VH: QVQLQQSGSELVRPGASVKLSCKASGYTFTTYWMHWVRQRPGQGLEWIGNIYPGTGGSNFDEKFKNRTSLTVDTSSTTAYMHLASLTSEDSAVYYCTRWTTGTGAYWGQGTTVTVSS VL: DIVMTQSPSSLTVTAGEKVTMSCKSSQSLLDSGNQKNFLTWYQQKPGQPPKLLIFWASTRESGVPDRFTGSGSVTDFTLTISSVQAEDLAVYYCQNDYSYPSTFGQGTKVEIKR"
